Data on 2 molecules can be found in article PMC4911407.

The chains behind the UniProt entries cited, without tags or fusion partners.
UniProt Q39026: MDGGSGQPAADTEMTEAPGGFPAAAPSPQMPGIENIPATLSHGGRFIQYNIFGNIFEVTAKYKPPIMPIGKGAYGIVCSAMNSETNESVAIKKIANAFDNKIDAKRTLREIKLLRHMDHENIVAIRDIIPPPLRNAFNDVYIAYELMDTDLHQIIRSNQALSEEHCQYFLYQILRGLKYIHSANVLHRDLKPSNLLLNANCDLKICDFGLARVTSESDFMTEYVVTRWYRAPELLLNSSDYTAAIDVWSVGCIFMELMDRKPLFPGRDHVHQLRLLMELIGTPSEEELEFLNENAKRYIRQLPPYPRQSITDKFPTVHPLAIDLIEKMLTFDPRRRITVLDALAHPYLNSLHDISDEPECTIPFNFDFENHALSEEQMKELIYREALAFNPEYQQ

Test [1] deals with pBD-GAL4-MPK6 (Arabidopsis thaliana) (UniProt Q39026). The test can be described thus: two-hybrid; yeast co-transformed with pAD-GAL4-AtDOF4.7 and pBD-GAL4-MPK3/MPK6; growth on 5 mM 3-AT medium lacking Trp, Leu, His and Ade, 28°C, 3 days.
In test [2] the target is pUC-SPYCE-MPK6 (Arabidopsis thaliana) (UniProt Q39026). The test is described as follows: split reporter; BiFC: pUC-SPYNE-AtDOF4.7 and pUC-SPYCE-MPK3/6 co-transformed into Arabidopsis mesophyll protoplasts; YFP fluorescence by laser confocal microscopy.

No constants are given. Whether binding was seen depends on the method and setting. For some assays here: In cells and extracts the contact can be indirect. Some entries that bind do so weakly or less than the wild type.

B1: pAD-GAL4-AtDOF4.7 (protein, UniProt Q84K52 1-246)
chain: MMTSSHQSNTTGFKPRRIKTTAKPPRQINNKEPSPATQPVLKCPRCDSVNTKFCYYNNYSLSQPRHYCKNCRRYWTRGGALRNVPIGGSTRNKNKPCSLQVISSPPLFSNGTSSASRELVRNHPSTAMMMMSSGGFSGYMFPLDPNFNLASSSIESLSSFNQDLHQKLQQQRLVTSMFLQDSLPVNEKTVMFQNVELIPPSTVTTDWVFDRFATGGGATSGNHEDNDDGEGNLGNWFHNANNNALL
With B1, the binding result in test [1] is “binds”.

B2: pUC-SPYNE-AtDOF4.7 (protein, UniProt Q84K52 1-246)
chain: MMTSSHQSNTTGFKPRRIKTTAKPPRQINNKEPSPATQPVLKCPRCDSVNTKFCYYNNYSLSQPRHYCKNCRRYWTRGGALRNVPIGGSTRNKNKPCSLQVISSPPLFSNGTSSASRELVRNHPSTAMMMMSSGGFSGYMFPLDPNFNLASSSIESLSSFNQDLHQKLQQQRLVTSMFLQDSLPVNEKTVMFQNVELIPPSTVTTDWVFDRFATGGGATSGNHEDNDDGEGNLGNWFHNANNNALL
For the molecule B2, in test [2], the binding result was “binds”.
